Experimental data taken from publication doi:10.1101/2022.12.29.522251.
These are yes or no findings as the source states them, for the method shown. In cells and extracts the contact can be indirect. Some results given as binding are weak or reduced against the parent protein; the word gives no strength.

Sequences of proteins named here, by UniProt entry; tags and fusion partners are left off.
UniProt Q99496: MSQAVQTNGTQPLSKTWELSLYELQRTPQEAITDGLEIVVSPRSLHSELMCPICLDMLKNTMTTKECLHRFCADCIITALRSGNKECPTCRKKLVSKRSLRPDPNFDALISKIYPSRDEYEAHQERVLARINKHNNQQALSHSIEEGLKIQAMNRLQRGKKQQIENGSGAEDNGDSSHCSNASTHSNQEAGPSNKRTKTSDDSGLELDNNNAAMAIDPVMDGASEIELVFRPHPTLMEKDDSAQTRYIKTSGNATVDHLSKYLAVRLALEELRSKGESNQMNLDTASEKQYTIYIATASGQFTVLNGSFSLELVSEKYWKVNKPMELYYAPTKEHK
UniProt O75626: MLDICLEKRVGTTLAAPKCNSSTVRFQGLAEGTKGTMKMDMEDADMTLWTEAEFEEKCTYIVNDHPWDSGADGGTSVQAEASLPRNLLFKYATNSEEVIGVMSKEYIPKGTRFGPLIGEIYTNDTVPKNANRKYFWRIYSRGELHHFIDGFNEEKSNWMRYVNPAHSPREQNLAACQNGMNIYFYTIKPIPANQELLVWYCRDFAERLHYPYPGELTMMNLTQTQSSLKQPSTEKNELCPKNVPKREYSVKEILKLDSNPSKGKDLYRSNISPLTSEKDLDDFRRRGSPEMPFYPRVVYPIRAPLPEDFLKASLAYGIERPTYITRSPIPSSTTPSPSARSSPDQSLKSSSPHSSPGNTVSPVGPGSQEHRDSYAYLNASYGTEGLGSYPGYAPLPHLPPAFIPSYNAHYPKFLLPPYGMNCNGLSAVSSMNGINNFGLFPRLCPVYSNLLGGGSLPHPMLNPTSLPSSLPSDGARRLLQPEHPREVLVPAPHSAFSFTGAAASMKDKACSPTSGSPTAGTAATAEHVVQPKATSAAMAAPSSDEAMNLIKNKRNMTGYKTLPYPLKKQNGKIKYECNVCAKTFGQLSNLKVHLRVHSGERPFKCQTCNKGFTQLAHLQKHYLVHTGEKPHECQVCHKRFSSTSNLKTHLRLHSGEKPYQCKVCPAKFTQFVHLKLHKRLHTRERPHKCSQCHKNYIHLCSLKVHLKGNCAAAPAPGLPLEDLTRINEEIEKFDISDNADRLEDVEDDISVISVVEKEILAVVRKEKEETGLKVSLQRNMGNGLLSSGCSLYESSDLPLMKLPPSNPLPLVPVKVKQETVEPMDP
UniProt Q01860: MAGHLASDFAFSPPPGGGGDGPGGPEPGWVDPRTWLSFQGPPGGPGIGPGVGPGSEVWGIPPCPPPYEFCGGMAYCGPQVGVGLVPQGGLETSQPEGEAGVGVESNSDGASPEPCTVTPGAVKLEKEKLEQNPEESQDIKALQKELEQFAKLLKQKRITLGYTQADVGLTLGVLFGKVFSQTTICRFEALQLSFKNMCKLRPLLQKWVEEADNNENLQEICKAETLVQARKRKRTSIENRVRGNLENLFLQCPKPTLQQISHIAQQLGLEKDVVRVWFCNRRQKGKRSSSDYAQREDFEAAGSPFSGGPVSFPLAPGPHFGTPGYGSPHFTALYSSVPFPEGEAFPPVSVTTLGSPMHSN

T1: RYBP (human (endogenous in hPSC-derived foregut cells)) (UniProt Q8N488)
T1 sequence: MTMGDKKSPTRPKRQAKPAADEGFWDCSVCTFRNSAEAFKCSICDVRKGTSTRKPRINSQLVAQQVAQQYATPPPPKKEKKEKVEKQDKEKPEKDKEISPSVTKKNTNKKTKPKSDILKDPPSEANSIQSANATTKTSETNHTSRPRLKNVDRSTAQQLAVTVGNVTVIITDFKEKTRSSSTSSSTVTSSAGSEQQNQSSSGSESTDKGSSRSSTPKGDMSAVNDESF

T2: PRDM14 (human (endogenous in hPSCs)) (UniProt Q9GZV8)
T2 sequence: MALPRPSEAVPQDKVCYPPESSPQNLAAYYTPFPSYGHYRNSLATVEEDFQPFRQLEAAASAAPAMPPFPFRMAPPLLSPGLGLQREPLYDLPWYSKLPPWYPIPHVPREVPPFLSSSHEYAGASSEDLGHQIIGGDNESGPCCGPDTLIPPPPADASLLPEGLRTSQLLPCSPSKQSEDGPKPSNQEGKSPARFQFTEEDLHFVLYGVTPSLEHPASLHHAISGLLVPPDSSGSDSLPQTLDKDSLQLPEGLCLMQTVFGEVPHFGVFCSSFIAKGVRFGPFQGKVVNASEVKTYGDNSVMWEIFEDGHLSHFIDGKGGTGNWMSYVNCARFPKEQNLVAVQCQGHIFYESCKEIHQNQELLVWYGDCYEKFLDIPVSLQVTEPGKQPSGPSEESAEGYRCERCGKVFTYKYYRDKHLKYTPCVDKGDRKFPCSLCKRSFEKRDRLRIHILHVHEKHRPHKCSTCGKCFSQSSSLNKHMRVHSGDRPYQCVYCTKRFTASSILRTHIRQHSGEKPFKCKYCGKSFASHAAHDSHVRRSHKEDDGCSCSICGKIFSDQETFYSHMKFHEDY


Experiments:
Experiment in all cases: co-IP
[1] = target: RING1B/RNF2 (human (endogenous in hPSCs and hPSC-derived foregut cells)) (UniProt Q99496)
[2] = target: T1, RYBP (human (endogenous in hPSC-derived foregut cells))
[3] = target: T2, PRDM14 (human (endogenous in hPSCs))
[4] = target: PR domain zinc finger 1 (PRDM1) (human (endogenous in hPSC-derived foregut cells)) (UniProt O75626)

Row | Molecule | binding [1] | also measured
1 | OCT4 (encoded by POU5F1) (from UniProt Q01860 1-360) (other; other documents disagree on this pair) | binds | 
2 | PR domain zinc finger 1 (PRDM1) (from UniProt O75626 1-825) |  | binding [2]: binds
3 | OCT4 (encoded by POU5F1) (from UniProt Q01860 1-360) |  | binding [3]: binds
4 | FOXA2 (protein, UniProt Q9Y261 1-457) MLGAVKMEGHEPSDWSSYYAEPEGYSSVSNMNAGLGMNGMNTYMSMSAAAMGSGSGNMSAGSMNMSSYVGAGMSPSLAGMSPGAGAMAGMGGSAGAAGVAGMGPHLSPSLSPLGGQAAGAMGGLAPYANMNSMSPMYGQAGLSRARDPKTYRRSYTHAKPPYSYISLITMAIQQSPNKMLTLSEIYQWIMDLFPFYRQNQQRWQNSIRHSLSFNDCFLKVPRSPDKPGKGSFWTLHPDSGNMFENGCYLRRQKRFKCEKQLALKEAAGAAGSGKKAAAGAQASQAQLGEAAGPASETPAGTESPHSSASPCQEHKRGGLGELKGTPAAALSPPEPAPSPGQQQQAAAHLLGPPHHPGLPPEAHLKPEHHYAFNHPFSINNLMSSEQQHHHSHHHHQPHKMDLKAYEQVMHYPGYGSPMPGSLAMGPVTNKTGLDASPLAADTSYYQGVYSRPIMNSS | binds | binding [4]: binds
5 | PRDM14 (protein, UniProt Q9GZV8 1-571) MALPRPSEAVPQDKVCYPPESSPQNLAAYYTPFPSYGHYRNSLATVEEDFQPFRQLEAAASAAPAMPPFPFRMAPPLLSPGLGLQREPLYDLPWYSKLPPWYPIPHVPREVPPFLSSSHEYAGASSEDLGHQIIGGDNESGPCCGPDTLIPPPPADASLLPEGLRTSQLLPCSPSKQSEDGPKPSNQEGKSPARFQFTEEDLHFVLYGVTPSLEHPASLHHAISGLLVPPDSSGSDSLPQTLDKDSLQLPEGLCLMQTVFGEVPHFGVFCSSFIAKGVRFGPFQGKVVNASEVKTYGDNSVMWEIFEDGHLSHFIDGKGGTGNWMSYVNCARFPKEQNLVAVQCQGHIFYESCKEIHQNQELLVWYGDCYEKFLDIPVSLQVTEPGKQPSGPSEESAEGYRCERCGKVFTYKYYRDKHLKYTPCVDKGDRKFPCSLCKRSFEKRDRLRIHILHVHEKHRPHKCSTCGKCFSQSSSLNKHMRVHSGDRPYQCVYCTKRFTASSILRTHIRQHSGEKPFKCKYCGKSFASHAAHDSHVRRSHKEDDGCSCSICGKIFSDQETFYSHMKFHEDY | binds | 
